Data: PubChem BioAssay AID540256 (National Center for Advancing Translational Sciences (NCATS), 2011)
The whole screen tested about 300,000 compounds, of which about 3,700 (1.2%) were called active. Inconclusive means that the source gave no clear call. Such entries were picked first, then a sample of the others. Calls come from the whole dose curve; tested in HEK293 cells. Potencies of inconclusive entries are doubtful fits and often do not repeat.

assay: qHTS for Inhibitors of binding or entry into cells for Lassa Virus; conditions: Lassa virus pseudotype entry inhibition, cell reporter; activity change, negative = inhibition: at 37.9 µM (top of the series) unless noted; note: nearly all actives have a fitted effect of over 50% in size
% is set by controls: 0 for no effect and ±100 for the full control effect; potency is the fitted concentration of half-maximal effect.

SMILES	Potency	activity change, negative = inhibition
Cc1ccc2c(nc3s/c(=C/c4cccs4)c(=O)n32)c1C	inconclusive: 4.47 µM [activator, full curve, poor fit]	–
CCOC(=O)C1=C(C)NC(SC)=C(C#N)C1CC(C)C (stereo unspecified)	inconclusive: 3.55 µM [inhibitor, full curve]	–
CC1CN(C2CCN(C(=O)COc3ccc(Cl)cc3)CC2)CC(C)O1 (stereo unspecified)	–	inactive: 9.72%
CCN1CCCC1CNC(=O)c1cc2c(-c3cccc(OC)c3)nn(C)c2s1 (stereo unspecified)	inconclusive: 18.3 µM [inhibitor, single point]	–
Cc1cccc(OCCCOc2cccc3cccnc23)c1C	inconclusive: 35.5 µM [inhibitor, single point]	–
CC1CCc2[nH]c3ccc(C(=O)N(C)CC(=O)Nc4ccccc4Br)cc3c2C1 (stereo unspecified)	inconclusive: 35.5 µM [inhibitor, single point]	–
CCOC(=O)c1[nH]c(C)c(CCC(=O)Nc2ccccc2C(=O)OC)c1C	inconclusive: 11.2 µM [inhibitor, partial curve]	–
CCOc1ccc(S(=O)(=O)/N=C(/Nc2ccc(C(C)=O)cc2)c2ccccc2)cc1	inconclusive: 10 µM [inhibitor, partial curve, poor fit]	–
Cc1ccc(Cl)cc1N1CCN(c2cccc[n+]2C)CC1	–	inactive: 1.47%
N#Cc1ccccc1OCC(=O)NC1CCCCC1	inconclusive: 2 µM [activator, partial curve, poor fit]	–
COc1cccc(/C=N/Nc2nnc(C)n2N)c1O	–	inactive: 9.19% [at 46.1 µM]
CCOP(=O)(OCC)c1nc(-c2ccccc2)oc1NCc1ccccc1	inconclusive: 9.2 µM [inhibitor, partial curve, poor fit]	–
Cc1nn(-c2ccccc2)c(C)c1NC(=O)COC(=O)c1cc([N+](=O)[O-])ccc1NCCO	inconclusive: 35.5 µM [inhibitor, single point]	–
CCOc1ccc2nc(NC(=O)C3CCCO3)sc2c1 (stereo unspecified)	inconclusive: 35.5 µM [inhibitor, single point]	–
COC(=O)c1ccccc1NC(=O)CNC(=O)c1ccc(OC)c(OC)c1	inconclusive: 0.794 µM [inhibitor, partial curve, poor fit]	–
O=C(c1ccc(S(=O)(=O)N2CCCCC2)cc1)N1CCN(Cc2ccc3c(c2)OCO3)CC1	–	inactive: -15%
C=CCc1cccc([C@@H]2[C@@H](C)CC[C@H]3C(=O)N4[C@@H](c5cc(OC)c(OC)c(OC)c5)c5[nH]c6ccccc6c5C[C@H]4C(=O)N23)c1	inconclusive: 14.6 µM [inhibitor, partial curve, poor fit]	–
CCN(CC)CCCC(C)Nc1nccc2c(Cl)cccc12 (stereo unspecified)	inconclusive: 17.8 µM [inhibitor, partial curve, poor fit]	–
COC(=O)c1sc2nc(-c3ccco3)ccc2c1N	inconclusive: 10 µM [inhibitor, partial curve]	–
COc1ccc(CCNC(=O)c2cc(=O)c3cc(C)ccc3o2)cc1	inconclusive: 25.1 µM [inhibitor, single point]	–
CCN(C(=O)COC(=O)c1ccc(Cl)cc1N)C1CCCCC1	inconclusive: 6.31 µM [inhibitor, full curve]	–

Of the compounds above, eight contain a carbonyl joined to an NH by a bond outside any ring:
SMILES	Potency	activity change, negative = inhibition
CCN1CCCC1CNC(=O)c1cc2c(-c3cccc(OC)c3)nn(C)c2s1 (stereo unspecified)	inconclusive: 18.3 µM [inhibitor, single point]	–
CC1CCc2[nH]c3ccc(C(=O)N(C)CC(=O)Nc4ccccc4Br)cc3c2C1 (stereo unspecified)	inconclusive: 35.5 µM [inhibitor, single point]	–
CCOC(=O)c1[nH]c(C)c(CCC(=O)Nc2ccccc2C(=O)OC)c1C	inconclusive: 11.2 µM [inhibitor, partial curve]	–
N#Cc1ccccc1OCC(=O)NC1CCCCC1	inconclusive: 2 µM [activator, partial curve, poor fit]	–
Cc1nn(-c2ccccc2)c(C)c1NC(=O)COC(=O)c1cc([N+](=O)[O-])ccc1NCCO	inconclusive: 35.5 µM [inhibitor, single point]	–
CCOc1ccc2nc(NC(=O)C3CCCO3)sc2c1 (stereo unspecified)	inconclusive: 35.5 µM [inhibitor, single point]	–
COC(=O)c1ccccc1NC(=O)CNC(=O)c1ccc(OC)c(OC)c1	inconclusive: 0.794 µM [inhibitor, partial curve, poor fit]	–
COc1ccc(CCNC(=O)c2cc(=O)c3cc(C)ccc3o2)cc1	inconclusive: 25.1 µM [inhibitor, single point]	–

Later entries.

SMILES	Potency	activity change, negative = inhibition
COCCCn1cnc2c(c1=O)c1nc3ccccc3nc1n2-c1ccc(C)cc1	–	inactive: -13.5%
COc1ccccc1CCC(=O)Nc1nc2ccccc2[nH]1	inconclusive: 6.51 µM [activator, single point]	–
Cc1csc(NC(=O)c2ccc3c(c2)OCO3)n1	active: 7.08 µM	–
O=S(=O)(c1ccc2c(c1)OCCO2)N1CCC(c2nc3ccc(Cl)cc3[nH]2)CC1	–	inactive: -42.9% [at 14.3 µM]
O=C(Oc1cccc2cccnc12)c1cccs1	inconclusive: 25.1 µM [inhibitor, single point]	–
COc1cccc(CNCc2cccn2-c2nnc(N3CCN(c4ccccc4)CC3)s2)c1	inconclusive: 35.5 µM [inhibitor, single point]	–
CC(C(=O)N1c2ccccc2CCc2ccccc21)n1nnc(-c2ccc(N(C)C)cc2)n1 (stereo unspecified)	inconclusive: 29.1 µM [inhibitor, single point]	–
Cc1nn(-c2ccccc2)c(Cl)c1CN(C(=O)CCl)c1cccc2ccccc12	inconclusive: 22.4 µM [inhibitor, single point]	–
CC1CCCCN1C(=O)COC(=O)c1n[nH]c2ccccc12 (stereo unspecified)	inconclusive: 2.82 µM [activator, full curve, poor fit]	–
CN(C)c1ccc(CNC(=O)CN2C(=O)CSc3ccc(S(=O)(=O)N4CCCC4)cc32)cc1	–	inactive: -1.75% [at 46.1 µM]
CN(C)c1cccc(C(=O)Nc2nc3ccc(S(=O)(=O)N4CCCC4)cc3s2)c1	inconclusive: 7.94 µM [inhibitor, partial curve, poor fit]	–
COc1ccc(N2CCc3c(C)nc4c(OC)cccc4c32)cc1	inconclusive: 12.6 µM [inhibitor, partial curve]	–
CCSc1ncc(Cl)c(C(=O)Nc2nc3ccc(Cl)cc3s2)n1	inconclusive: 35.5 µM [activator, single point]	–
CN(C)c1ccc(NC(=O)Cn2nnc3sc4c(c3c2=O)CCC(C(C)(C)C)C4)cc1 (stereo unspecified)	inconclusive: 2.51 µM [activator, partial curve, poor fit]	–
CCCOc1ccc2[nH]cc(C(=O)O)c(=O)c2c1	–	inactive: 11.8%
O=[N+]([O-])c1ccc(N2CCC(=NOCc3ccc(Cl)cc3)CC2)cc1	inconclusive: 18.3 µM [inhibitor, single point]	–
N#Cc1c(N2CCN(c3ccc(F)cc3)CC2)nc(N)c2c(N)nc3c(c12)CC(=O)N3C1CC1	–	inactive: 16.2%
CCC1CN(C(=O)N2CCC(C(=O)NCc3cc(OC)c(OC)c(OC)c3)CC2)c2ccccc2O1 (stereo unspecified)	inconclusive: 11.2 µM [inhibitor, partial curve, poor fit]	–
O=C1COc2ccc(-c3csc(=Nc4ccc(OC(F)F)cc4)n3CC3CCCO3)cc2N1 (stereo unspecified)	inconclusive: 20.6 µM [inhibitor, partial curve, poor fit]	–
CCOc1ccc(NC(=O)COC(=O)c2c(OC)cccc2OC)cc1	inconclusive: 5.62 µM [inhibitor, single point]	–
